# Values of other authors in US11879145B2, “Reagents and methods for replication, transcription, and translation in semi-synthetic organisms” (The Scripps Research Institute, priority 2019, dated 2024).
# At least one compound was matched to its structure with a doubt left.
# Conditions: cited from earlier work
smiles,measurement,value
"N[C@@H](CC(=O)O)C(=O)O [Aspartic acid, aspartate]",Hydropathy Index,−3.5
